In US11311637 (dated 2022):

Columns and labels:
peptide synthesis = details: whole synthesis, RP-HPLC; run 1
peptide made by a vendor = details: whole synthesis, RP-HPLC; run 2

NOTA-Asp-Cha-Phe-(D)Ser-(D)Arg-Tyr-Leu-Trp-Ser-COOH
final HPLC purity (peptide synthesis): >98%
final HPLC purity (peptide made by a vendor): >97%
